Test results from the supplement of paper PMC12823440, “Inhibitors supercharge kinase turnover through native proteolytic circuits” (Nature, 2025).
The other results are listed elsewhere or left out. Hit calls seldom repeat between salt and free forms of one compound.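 In K562 cells expressing nanoluciferase-fused kinases, luminescence was recorded at 4 h intervals between 2 and 18 h, normalized as percent of control with DMSO at 100% and a positive control at 0%. A significant (2 sigma) signal drop marks a time point as decreased. The authors' rule for a hit is not shown and takes in more than the number of time points.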

Chains of the proteins cited; added tags and fusions are not shown. Lines headed by an entry give the natural chain unless they say otherwise; changes in a name come on top.
UniProt P07949, whole entry, looked up: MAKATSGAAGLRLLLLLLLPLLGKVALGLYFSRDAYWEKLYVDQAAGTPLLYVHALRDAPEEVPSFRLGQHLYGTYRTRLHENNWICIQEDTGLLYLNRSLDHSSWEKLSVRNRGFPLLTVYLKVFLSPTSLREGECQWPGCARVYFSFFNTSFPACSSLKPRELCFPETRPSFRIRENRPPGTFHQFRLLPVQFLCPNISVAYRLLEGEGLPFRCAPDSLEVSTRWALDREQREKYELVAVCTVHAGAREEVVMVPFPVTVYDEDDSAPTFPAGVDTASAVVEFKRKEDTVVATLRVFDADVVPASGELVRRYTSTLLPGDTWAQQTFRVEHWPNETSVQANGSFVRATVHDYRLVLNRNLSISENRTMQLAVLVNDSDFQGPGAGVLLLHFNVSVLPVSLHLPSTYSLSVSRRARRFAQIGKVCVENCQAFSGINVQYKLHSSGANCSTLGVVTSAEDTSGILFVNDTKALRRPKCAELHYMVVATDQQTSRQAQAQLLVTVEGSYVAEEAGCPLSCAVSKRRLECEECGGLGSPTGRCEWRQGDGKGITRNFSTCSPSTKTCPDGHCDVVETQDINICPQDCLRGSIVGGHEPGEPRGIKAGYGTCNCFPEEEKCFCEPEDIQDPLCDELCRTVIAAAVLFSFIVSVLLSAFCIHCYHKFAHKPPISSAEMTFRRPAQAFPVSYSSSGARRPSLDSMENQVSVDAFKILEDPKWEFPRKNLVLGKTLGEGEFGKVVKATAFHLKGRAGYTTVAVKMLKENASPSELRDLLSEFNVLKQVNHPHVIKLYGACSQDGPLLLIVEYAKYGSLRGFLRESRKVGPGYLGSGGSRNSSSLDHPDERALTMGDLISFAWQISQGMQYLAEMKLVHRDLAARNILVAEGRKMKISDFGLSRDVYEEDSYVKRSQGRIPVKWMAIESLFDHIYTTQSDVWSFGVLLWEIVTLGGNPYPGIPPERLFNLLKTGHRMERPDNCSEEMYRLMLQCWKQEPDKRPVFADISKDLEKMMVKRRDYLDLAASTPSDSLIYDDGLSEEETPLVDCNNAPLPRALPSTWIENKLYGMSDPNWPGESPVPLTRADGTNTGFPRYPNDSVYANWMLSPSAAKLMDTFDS
UniProt P07949, whole entry M918T, looked up: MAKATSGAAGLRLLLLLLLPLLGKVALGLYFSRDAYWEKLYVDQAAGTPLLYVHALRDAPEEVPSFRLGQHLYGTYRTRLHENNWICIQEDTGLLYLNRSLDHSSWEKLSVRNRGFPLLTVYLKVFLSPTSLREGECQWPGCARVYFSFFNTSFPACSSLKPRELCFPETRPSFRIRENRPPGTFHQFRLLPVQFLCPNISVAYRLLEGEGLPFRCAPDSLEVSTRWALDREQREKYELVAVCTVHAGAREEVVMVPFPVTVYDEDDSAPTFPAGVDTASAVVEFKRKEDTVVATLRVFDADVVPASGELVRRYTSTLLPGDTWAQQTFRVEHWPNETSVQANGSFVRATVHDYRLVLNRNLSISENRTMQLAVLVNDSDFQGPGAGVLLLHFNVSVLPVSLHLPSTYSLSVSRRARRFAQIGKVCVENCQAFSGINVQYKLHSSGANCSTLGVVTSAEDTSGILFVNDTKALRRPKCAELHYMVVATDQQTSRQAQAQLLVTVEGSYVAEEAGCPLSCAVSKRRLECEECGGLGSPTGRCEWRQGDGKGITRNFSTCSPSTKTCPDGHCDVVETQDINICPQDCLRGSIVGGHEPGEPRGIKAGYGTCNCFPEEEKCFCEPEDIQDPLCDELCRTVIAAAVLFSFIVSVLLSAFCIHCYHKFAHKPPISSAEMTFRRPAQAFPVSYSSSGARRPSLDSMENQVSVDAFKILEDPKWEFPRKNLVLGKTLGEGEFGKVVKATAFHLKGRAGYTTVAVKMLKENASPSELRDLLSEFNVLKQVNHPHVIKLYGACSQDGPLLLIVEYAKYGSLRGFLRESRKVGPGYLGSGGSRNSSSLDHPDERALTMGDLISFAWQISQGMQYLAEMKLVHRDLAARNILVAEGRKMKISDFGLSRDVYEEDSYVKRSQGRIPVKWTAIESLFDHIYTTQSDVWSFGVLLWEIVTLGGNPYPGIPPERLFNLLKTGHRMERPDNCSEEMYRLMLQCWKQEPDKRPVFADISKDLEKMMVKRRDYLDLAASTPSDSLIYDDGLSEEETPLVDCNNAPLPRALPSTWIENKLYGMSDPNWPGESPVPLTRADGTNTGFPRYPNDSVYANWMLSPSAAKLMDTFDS
UniProt Q9BRS2: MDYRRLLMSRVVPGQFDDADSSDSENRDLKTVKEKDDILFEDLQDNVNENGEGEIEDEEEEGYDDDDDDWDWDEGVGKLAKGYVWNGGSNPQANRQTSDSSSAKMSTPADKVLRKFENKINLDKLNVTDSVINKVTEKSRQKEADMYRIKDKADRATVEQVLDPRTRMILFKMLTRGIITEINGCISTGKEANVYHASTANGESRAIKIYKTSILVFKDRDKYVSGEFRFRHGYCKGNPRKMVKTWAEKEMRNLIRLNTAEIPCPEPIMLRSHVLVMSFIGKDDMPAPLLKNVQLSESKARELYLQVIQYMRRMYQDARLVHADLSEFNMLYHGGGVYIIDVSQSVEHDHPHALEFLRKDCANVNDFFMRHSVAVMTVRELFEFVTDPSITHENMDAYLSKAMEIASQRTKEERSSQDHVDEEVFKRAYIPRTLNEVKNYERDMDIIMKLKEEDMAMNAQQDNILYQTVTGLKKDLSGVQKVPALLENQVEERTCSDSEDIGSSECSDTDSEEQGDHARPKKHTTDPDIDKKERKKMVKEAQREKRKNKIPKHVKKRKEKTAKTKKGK
UniProt Q13546: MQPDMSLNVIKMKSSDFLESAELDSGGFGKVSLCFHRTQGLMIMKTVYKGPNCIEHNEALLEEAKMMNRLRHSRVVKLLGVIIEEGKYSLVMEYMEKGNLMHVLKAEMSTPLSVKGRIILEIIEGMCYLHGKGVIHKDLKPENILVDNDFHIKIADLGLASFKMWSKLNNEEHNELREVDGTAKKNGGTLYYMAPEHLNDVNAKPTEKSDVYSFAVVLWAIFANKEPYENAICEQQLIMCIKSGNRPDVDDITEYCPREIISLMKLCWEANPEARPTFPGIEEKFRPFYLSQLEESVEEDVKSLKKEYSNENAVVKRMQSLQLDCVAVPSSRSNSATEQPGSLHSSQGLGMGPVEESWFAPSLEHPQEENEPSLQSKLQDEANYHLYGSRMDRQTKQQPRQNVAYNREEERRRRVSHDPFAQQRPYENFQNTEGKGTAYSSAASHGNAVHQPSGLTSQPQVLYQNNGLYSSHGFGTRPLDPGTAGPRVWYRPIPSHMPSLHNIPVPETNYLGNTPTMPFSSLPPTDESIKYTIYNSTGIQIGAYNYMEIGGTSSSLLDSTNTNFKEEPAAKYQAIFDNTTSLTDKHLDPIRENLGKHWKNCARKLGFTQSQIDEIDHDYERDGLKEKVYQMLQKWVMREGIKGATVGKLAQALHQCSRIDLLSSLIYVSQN
UniProt Q01974, whole entry: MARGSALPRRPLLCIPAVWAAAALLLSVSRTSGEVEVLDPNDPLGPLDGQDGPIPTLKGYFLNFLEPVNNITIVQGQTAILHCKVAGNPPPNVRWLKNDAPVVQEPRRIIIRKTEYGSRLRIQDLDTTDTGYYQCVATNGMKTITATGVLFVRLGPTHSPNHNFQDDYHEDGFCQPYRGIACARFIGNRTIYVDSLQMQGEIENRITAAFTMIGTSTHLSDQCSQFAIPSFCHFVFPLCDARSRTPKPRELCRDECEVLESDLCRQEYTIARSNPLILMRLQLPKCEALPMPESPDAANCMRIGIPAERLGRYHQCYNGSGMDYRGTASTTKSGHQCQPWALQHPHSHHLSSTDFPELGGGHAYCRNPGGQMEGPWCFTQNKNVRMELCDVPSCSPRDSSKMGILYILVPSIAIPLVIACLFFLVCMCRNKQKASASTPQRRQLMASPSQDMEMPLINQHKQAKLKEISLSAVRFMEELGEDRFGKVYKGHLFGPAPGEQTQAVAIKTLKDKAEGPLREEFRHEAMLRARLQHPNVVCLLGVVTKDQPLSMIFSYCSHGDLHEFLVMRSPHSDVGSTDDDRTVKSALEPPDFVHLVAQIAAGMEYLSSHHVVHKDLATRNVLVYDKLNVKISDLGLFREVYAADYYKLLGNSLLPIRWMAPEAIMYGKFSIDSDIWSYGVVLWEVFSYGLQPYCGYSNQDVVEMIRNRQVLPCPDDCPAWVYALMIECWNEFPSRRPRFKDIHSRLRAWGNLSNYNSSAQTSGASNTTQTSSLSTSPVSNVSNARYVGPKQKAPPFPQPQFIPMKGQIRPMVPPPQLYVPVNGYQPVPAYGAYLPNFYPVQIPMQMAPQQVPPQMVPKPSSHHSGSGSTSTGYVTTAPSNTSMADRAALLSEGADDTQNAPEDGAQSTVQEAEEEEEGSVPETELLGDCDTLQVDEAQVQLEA
UniProt Q15418, whole entry: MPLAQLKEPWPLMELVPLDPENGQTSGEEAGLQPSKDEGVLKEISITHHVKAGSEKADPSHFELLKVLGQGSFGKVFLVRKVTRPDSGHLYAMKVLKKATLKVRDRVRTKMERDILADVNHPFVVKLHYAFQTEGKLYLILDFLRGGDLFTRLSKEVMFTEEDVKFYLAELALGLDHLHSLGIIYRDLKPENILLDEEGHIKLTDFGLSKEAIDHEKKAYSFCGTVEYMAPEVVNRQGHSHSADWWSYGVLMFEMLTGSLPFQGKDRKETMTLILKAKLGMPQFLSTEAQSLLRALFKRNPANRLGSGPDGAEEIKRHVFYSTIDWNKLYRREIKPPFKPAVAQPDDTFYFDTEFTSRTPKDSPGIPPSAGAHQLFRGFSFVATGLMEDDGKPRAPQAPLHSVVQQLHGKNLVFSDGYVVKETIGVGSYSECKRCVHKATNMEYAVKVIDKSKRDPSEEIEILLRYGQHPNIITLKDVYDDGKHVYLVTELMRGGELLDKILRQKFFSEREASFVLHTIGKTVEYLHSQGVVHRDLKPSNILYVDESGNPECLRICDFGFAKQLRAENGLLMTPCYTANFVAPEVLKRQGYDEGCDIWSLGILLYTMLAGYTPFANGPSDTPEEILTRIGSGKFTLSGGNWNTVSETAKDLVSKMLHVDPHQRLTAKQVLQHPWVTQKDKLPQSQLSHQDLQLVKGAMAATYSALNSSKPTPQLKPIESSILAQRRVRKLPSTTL
UniProt Q9NYA1, whole entry: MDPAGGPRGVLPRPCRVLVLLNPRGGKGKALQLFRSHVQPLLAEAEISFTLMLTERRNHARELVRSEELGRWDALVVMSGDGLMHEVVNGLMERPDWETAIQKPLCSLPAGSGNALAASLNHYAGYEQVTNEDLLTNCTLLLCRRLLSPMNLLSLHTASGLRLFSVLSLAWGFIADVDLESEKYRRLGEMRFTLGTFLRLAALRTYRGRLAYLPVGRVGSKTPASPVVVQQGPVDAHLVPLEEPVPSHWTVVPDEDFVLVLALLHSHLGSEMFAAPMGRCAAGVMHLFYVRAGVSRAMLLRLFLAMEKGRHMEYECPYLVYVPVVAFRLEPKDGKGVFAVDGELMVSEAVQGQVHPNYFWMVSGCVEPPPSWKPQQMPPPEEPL
UniProt Q9Y6E0: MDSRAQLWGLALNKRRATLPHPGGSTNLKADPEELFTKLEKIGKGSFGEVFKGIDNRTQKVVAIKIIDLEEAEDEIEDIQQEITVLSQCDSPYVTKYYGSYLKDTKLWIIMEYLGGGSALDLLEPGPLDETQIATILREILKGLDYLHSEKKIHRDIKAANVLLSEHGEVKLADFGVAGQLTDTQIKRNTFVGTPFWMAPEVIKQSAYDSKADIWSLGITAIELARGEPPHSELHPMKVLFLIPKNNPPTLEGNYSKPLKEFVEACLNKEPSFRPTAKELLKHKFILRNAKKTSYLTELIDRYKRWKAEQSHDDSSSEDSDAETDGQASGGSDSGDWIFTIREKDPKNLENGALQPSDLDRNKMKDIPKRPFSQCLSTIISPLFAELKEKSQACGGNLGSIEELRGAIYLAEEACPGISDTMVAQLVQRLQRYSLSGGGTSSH

Key:
Assay in all cases: kinase-Nluc reporter destabilization hit call (1 = scored as downregulated) (binary); higher = compound decreases kinase abundance
Settings in all cases: K562; 2-18 h
RET = RET (UniProt P07949)
[1] = biological target: RET_M918T (clone: RET_mut) (UniProt P07949)
RIOK1 = RIOK1 (UniProt Q9BRS2)
RIPK1 = RIPK1 (UniProt Q13546)
RIPK2 = RIPK2 (UniProt O43353)
ROR2 = ROR2 (UniProt Q01974)
RPS6KA1 = RPS6KA1 (UniProt Q15418)
SPHK1 = SPHK1 (UniProt Q9NYA1)
SRC = SRC (UniProt P12931)
STK24 = STK24 (UniProt Q9Y6E0)

Compound | kinase-Nluc reporter destabilization hit call (RET) | kinase-Nluc reporter destabilization hit call [1] | kinase-Nluc reporter destabilization hit call (RIOK1) | kinase-Nluc reporter destabilization hit call (RIPK1) | kinase-Nluc reporter destabilization hit call (RIPK2) | kinase-Nluc reporter destabilization hit call (ROR2) | kinase-Nluc reporter destabilization hit call (RPS6KA1) | kinase-Nluc reporter destabilization hit call (SPHK1) | kinase-Nluc reporter destabilization hit call (SRC) | kinase-Nluc reporter destabilization hit call (STK24)
CCc1cccc(CC)c1NC(=O)N1Cc2[nH]nc(NC(=O)c3ccc(N4CCN(C)CC4)cc3)c2C1 (2.5 µM) | inactive: 0 | inactive: 0 | inactive: 0 | inactive: 0 | inactive: 0 | inactive: 0 | inactive: 0 | inactive: 0 | inactive: 0 | inactive: 0
CCN(CC)c1ccc2cc(-c3nc4cc(C)ccc4o3)c(=O)oc2c1 (10 µM) | inactive: 0 | inactive: 0 | inactive: 0 | inactive: 0 | inactive: 0 | inactive: 0 | inactive: 0 | inactive: 0 | inactive: 0 | inactive: 0
C[C@@H]1COCCN1c1nc(-c2cnc(N)cc2C(F)F)nc(N2[C@H](C)COC[C@@H]2C)n1 (2.5 µM) | inactive: 0 | inactive: 0 | inactive: 0 | inactive: 0 | inactive: 0 | inactive: 0 | inactive: 0 | inactive: 0 | inactive: 0 | inactive: 0
CN1CCC(c2ccccc2CC(C)(C)Nc2nc(N3CCOCC3)nc(-n3c(C(F)F)nc4ccccc43)n2)CC1 [Zandelisib] (10 µM) | inactive: 0 | inactive: 0 | inactive: 0 | inactive: 0 | inactive: 0 | inactive: 0 | inactive: 0 | inactive: 0 | inactive: 0 | inactive: 0
C=CC(=O)Nc1cccc(-c2cccc3cnc(Nc4ccc(N5CCN(CCO)CC5)c(F)c4F)nc23)c1 [Olafertinib] (2.5 µM) | inactive: 0 | inactive: 0 | inactive: 0 | inactive: 0 | inactive: 0 | inactive: 0 | inactive: 0 | inactive: 0 | inactive: 0 | inactive: 0
O=C(Nc1cccc(C(F)(F)F)c1)c1cccc2cc(Oc3cc(CO)ncn3)ccc12 (10 µM) | inactive: 0 | inactive: 0 | inactive: 0 | inactive: 0 | inactive: 0 | inactive: 0 | inactive: 0 | inactive: 0 | inactive: 0 | inactive: 0
COc1cc2ncnc(Nc3ccc(F)c(Cl)c3)c2cc1NC(=O)/C=C/CN1CCCCC1 [Dacomitinib] (10 µM) | inactive: 0 | inactive: 0 | inactive: 0 | inactive: 0 | inactive: 0 | inactive: 0 | inactive: 0 | inactive: 0 | inactive: 0 | inactive: 0
COc1ccccc1C(=O)/C=C/c1ccccc1C(=O)O (10 µM) | inactive: 0 | inactive: 0 | inactive: 0 | inactive: 0 | inactive: 0 | inactive: 0 | inactive: 0 | inactive: 0 | inactive: 0 | inactive: 0
Nc1n[nH]c2nc(-c3ccc(NS(=O)(=O)c4cc(Cl)ccc4F)cc3)cnc12 (10 µM) | inactive: 0 | inactive: 0 | inactive: 0 | inactive: 0 | inactive: 0 | inactive: 0 | inactive: 0 | active: 1 | inactive: 0 | inactive: 0
CCCCCCCC/C=C\CCCCCCCCCCCC(=O)O [Erucic acid] (10 µM) | inactive: 0 | inactive: 0 | inactive: 0 | inactive: 0 | inactive: 0 | inactive: 0 | inactive: 0 | inactive: 0 | inactive: 0 | inactive: 0
CCCCCCCCCCCCCCCCOP(=O)([O-])OCC[N+](C)(C)C [Miltefosine] (10 µM) | inactive: 0 | inactive: 0 | inactive: 0 | inactive: 0 | inactive: 0 | inactive: 0 | inactive: 0 | inactive: 0 | inactive: 0 | inactive: 0
Cc1nn(C)c2c1C(c1ccc(C(F)(F)F)cc1)C(C#N)=C(N)O2 (stereo not given) (10 µM) | inactive: 0 | inactive: 0 | inactive: 0 | inactive: 0 | inactive: 0 | inactive: 0 | inactive: 0 | inactive: 0 | inactive: 0 | inactive: 0
O=C(CNc1cccc(Cl)c1)NC1CCCN(c2ncnc3[nH]ccc23)C1 (stereo not given) (10 µM) | inactive: 0 | inactive: 0 | inactive: 0 | inactive: 0 | inactive: 0 | inactive: 0 | inactive: 0 | inactive: 0 | inactive: 0 | inactive: 0
Cc1ccc(NC(=O)c2ccnc(C(F)(F)F)c2)cc1-c1cc(OCCO)nc(N2CCOCC2)c1 (10 µM) | inactive: 0 | inactive: 0 | inactive: 0 | inactive: 0 | inactive: 0 | inactive: 0 | inactive: 0 | inactive: 0 | inactive: 0 | inactive: 0
C[C@@H]1CN(c2cc(-c3n[nH]c4ccc(OC5(C)CC5)cc34)ncn2)C[C@H](C)O1 (10 µM) | inactive: 0 | inactive: 0 | inactive: 0 | inactive: 0 | inactive: 0 | inactive: 0 | inactive: 0 | inactive: 0 | inactive: 0 | inactive: 0
Nc1nccc(Oc2ccc(NC(=O)c3c[nH]cc(-c4ccc(F)cc4)c3=O)cc2F)c1Cl (10 µM) | inactive: 0 | inactive: 0 | inactive: 0 | inactive: 0 | inactive: 0 | inactive: 0 | inactive: 0 | inactive: 0 | inactive: 0 | inactive: 0

Some of the entries above, reformatted.
Compound	kinase-Nluc reporter destabilization hit call (RET)	kinase-Nluc reporter destabilization hit call [1]	kinase-Nluc reporter destabilization hit call (RIOK1)	kinase-Nluc reporter destabilization hit call (RIPK1)	kinase-Nluc reporter destabilization hit call (RIPK2)	kinase-Nluc reporter destabilization hit call (ROR2)	kinase-Nluc reporter destabilization hit call (RPS6KA1)	kinase-Nluc reporter destabilization hit call (SPHK1)	kinase-Nluc reporter destabilization hit call (SRC)	kinase-Nluc reporter destabilization hit call (STK24)
CCc1cccc(CC)c1NC(=O)N1Cc2[nH]nc(NC(=O)c3ccc(N4CCN(C)CC4)cc3)c2C1 (2.5 µM)	inactive: 0	inactive: 0	inactive: 0	inactive: 0	inactive: 0	inactive: 0	inactive: 0	inactive: 0	inactive: 0	inactive: 0
COc1ccccc1C(=O)/C=C/c1ccccc1C(=O)O (10 µM)	inactive: 0	inactive: 0	inactive: 0	inactive: 0	inactive: 0	inactive: 0	inactive: 0	inactive: 0	inactive: 0	inactive: 0
